Compound in this experiment: Nc1ncnc2c1ncn2[C@@H]1O[C@H](COP(=O)(O)OP(=O)(O)OP(=O)(O)O)[C@@H](O)[C@H]1O [adenosine triphosphate]
As to the kind of experiment: NP40-soluble protein abundance relative to vehicle (solubility fold change) (ratio); higher = more soluble protein in presence of ATP. The method in brief: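 Data come from three independent experiments in which Dounce-homogenised Jurkat crude lysate was treated at eight concentrations from 0.1 to 10 mM. Treatment ran 10 min at room temperature and then 3 min at 37 °C, after which 0.8% NP40 and benzonase were added for 60 min at 4 °C before ultracentrifugation. The supernatant underwent TMT labelling and LC-MS/MS, and vsn-normalised intensities were expressed as fold change against the detergent-processed vehicle in each replicate.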

Amino acid sequences for entries named in this document (tags omitted). A change or cut given only in a name is not applied to a line headed by its entry.
UniProt P39880: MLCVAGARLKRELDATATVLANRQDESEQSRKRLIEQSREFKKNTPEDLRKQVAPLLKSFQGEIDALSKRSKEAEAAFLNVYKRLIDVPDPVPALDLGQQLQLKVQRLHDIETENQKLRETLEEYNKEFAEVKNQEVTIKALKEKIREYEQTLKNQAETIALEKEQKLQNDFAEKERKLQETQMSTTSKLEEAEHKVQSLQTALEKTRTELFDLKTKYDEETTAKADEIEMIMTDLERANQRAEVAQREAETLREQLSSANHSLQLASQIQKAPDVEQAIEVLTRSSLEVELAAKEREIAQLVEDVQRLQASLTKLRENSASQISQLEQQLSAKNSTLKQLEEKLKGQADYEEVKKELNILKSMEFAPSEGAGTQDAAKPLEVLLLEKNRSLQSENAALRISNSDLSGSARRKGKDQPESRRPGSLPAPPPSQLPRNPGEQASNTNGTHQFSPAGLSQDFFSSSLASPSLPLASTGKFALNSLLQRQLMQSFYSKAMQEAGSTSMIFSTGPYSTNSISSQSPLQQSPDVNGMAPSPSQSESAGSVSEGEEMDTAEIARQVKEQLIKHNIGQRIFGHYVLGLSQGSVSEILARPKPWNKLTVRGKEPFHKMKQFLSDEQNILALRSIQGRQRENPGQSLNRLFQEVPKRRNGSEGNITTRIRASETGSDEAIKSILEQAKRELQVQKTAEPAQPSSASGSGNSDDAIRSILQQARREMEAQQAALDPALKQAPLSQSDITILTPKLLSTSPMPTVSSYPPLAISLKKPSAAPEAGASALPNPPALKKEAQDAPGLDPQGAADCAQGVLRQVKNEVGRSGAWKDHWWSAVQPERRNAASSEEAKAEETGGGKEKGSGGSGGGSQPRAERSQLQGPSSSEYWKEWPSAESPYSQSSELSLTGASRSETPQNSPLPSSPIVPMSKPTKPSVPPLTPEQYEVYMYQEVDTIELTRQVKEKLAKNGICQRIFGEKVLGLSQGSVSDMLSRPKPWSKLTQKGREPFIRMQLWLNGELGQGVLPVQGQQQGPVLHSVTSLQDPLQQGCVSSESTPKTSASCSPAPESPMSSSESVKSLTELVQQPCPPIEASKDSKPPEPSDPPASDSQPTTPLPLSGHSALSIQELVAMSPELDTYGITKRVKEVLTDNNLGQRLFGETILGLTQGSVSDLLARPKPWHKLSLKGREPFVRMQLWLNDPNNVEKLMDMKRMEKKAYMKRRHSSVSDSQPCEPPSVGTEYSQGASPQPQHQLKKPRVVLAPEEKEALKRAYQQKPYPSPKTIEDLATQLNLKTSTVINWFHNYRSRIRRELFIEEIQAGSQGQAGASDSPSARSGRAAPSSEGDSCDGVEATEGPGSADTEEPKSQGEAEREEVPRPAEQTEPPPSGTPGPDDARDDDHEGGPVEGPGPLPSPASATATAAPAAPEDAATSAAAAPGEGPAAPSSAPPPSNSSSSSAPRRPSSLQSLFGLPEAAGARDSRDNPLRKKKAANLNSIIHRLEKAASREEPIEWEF
UniProt Q13948: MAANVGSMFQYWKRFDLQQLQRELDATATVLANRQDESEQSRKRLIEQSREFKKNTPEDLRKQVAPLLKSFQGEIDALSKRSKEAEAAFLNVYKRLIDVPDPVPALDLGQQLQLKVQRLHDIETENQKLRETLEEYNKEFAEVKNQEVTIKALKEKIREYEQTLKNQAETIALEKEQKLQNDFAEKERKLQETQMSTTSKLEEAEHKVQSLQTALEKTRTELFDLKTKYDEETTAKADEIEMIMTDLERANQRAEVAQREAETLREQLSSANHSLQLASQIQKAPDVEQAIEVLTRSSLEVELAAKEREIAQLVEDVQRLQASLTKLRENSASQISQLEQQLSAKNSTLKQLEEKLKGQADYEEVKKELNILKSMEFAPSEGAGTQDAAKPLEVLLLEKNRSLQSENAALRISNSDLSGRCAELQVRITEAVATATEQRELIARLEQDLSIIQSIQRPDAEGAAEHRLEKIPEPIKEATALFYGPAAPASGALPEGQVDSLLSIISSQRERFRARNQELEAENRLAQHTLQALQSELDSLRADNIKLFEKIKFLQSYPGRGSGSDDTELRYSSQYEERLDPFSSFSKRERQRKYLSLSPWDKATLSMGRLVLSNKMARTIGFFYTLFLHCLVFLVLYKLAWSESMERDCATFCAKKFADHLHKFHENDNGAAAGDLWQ
UniProt P49773: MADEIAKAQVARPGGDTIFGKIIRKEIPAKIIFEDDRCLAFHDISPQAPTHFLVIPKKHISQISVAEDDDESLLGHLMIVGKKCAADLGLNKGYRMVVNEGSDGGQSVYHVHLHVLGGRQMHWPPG
UniProt P49137, whole entry, looked up: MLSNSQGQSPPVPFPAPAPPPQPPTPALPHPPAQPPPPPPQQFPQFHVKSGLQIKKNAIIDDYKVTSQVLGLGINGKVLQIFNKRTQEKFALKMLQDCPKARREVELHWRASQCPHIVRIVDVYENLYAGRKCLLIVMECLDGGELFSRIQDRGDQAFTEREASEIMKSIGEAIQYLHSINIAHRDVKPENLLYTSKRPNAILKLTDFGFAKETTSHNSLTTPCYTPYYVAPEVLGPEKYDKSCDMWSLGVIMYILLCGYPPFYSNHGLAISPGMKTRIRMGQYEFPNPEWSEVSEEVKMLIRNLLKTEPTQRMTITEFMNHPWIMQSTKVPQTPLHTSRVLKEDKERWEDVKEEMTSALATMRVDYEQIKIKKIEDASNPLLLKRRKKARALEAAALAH
UniProt P50613: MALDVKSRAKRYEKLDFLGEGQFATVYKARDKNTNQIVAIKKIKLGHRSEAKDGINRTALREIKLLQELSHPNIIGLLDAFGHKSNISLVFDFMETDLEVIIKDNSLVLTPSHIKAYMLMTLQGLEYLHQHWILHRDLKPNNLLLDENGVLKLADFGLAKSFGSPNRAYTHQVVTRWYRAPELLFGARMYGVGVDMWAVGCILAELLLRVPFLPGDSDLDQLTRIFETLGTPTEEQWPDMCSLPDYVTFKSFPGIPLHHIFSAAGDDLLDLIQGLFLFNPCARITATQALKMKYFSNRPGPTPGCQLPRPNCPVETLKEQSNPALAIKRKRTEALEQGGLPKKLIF
UniProt P35914: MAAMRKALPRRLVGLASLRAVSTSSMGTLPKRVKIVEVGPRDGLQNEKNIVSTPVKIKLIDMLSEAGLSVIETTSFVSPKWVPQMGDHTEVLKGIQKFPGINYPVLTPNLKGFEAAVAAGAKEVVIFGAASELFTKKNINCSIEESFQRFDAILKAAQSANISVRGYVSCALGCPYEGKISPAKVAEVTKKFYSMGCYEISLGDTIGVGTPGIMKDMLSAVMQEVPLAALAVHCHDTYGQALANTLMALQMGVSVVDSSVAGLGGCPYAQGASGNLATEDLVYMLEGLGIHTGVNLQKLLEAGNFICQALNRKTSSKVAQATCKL
UniProt P52294, whole entry: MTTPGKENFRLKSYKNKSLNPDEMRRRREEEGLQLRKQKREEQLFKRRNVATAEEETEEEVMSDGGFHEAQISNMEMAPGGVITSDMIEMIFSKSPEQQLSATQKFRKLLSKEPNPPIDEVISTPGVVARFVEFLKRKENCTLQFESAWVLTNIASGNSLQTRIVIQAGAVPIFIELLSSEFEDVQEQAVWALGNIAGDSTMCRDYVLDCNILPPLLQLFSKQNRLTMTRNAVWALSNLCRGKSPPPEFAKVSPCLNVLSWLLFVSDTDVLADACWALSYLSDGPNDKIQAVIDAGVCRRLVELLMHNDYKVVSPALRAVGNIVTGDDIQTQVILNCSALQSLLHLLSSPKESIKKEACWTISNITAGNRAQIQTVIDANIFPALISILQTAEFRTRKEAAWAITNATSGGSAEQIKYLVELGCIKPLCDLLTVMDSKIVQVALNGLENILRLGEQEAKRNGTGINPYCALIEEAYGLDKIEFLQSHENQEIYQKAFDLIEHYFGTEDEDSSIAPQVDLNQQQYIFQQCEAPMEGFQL
UniProt P42566: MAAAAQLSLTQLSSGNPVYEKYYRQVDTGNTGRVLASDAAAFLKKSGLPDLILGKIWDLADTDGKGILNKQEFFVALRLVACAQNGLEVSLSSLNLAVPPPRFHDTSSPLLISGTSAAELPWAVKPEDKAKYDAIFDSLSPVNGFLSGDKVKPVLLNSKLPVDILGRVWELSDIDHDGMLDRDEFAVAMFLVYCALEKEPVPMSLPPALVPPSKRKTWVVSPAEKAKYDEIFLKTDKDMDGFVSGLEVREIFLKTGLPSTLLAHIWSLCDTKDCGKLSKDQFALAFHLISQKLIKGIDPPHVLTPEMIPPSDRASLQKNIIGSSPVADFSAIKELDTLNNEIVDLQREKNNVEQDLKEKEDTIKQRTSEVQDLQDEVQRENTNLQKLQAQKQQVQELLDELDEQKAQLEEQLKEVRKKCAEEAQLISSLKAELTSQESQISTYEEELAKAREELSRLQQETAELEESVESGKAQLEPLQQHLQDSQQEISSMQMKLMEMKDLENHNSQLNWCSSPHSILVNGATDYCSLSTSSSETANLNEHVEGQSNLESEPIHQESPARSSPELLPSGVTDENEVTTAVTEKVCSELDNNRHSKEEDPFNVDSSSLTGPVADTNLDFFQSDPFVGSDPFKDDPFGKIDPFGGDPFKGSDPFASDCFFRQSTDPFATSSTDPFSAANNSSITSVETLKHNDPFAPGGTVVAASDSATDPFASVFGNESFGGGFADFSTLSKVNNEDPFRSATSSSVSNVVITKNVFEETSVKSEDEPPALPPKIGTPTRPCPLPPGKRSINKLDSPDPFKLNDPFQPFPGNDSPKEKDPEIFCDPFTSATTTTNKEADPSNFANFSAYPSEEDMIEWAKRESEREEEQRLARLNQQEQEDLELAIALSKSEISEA
UniProt P49754: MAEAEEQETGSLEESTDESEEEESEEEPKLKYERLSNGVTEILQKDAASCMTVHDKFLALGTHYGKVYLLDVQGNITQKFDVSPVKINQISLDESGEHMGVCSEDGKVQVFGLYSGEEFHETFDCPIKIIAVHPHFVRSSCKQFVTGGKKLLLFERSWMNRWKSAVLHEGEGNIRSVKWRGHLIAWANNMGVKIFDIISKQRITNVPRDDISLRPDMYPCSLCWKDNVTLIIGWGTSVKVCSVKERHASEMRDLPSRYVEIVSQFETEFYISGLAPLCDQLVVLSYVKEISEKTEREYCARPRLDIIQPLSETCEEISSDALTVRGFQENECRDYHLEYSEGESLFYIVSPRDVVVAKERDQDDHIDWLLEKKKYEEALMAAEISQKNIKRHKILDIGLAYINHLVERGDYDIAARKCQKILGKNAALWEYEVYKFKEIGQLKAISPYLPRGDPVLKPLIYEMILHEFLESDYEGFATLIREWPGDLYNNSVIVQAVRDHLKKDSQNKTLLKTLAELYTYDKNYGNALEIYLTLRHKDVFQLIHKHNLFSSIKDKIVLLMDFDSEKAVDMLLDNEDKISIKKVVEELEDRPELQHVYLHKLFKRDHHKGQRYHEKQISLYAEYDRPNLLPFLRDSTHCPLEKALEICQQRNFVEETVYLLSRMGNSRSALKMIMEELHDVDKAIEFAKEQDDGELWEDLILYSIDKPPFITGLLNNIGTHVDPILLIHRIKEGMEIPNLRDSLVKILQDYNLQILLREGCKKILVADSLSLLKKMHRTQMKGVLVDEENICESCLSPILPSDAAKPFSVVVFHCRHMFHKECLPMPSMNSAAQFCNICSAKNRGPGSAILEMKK
UniProt P51957: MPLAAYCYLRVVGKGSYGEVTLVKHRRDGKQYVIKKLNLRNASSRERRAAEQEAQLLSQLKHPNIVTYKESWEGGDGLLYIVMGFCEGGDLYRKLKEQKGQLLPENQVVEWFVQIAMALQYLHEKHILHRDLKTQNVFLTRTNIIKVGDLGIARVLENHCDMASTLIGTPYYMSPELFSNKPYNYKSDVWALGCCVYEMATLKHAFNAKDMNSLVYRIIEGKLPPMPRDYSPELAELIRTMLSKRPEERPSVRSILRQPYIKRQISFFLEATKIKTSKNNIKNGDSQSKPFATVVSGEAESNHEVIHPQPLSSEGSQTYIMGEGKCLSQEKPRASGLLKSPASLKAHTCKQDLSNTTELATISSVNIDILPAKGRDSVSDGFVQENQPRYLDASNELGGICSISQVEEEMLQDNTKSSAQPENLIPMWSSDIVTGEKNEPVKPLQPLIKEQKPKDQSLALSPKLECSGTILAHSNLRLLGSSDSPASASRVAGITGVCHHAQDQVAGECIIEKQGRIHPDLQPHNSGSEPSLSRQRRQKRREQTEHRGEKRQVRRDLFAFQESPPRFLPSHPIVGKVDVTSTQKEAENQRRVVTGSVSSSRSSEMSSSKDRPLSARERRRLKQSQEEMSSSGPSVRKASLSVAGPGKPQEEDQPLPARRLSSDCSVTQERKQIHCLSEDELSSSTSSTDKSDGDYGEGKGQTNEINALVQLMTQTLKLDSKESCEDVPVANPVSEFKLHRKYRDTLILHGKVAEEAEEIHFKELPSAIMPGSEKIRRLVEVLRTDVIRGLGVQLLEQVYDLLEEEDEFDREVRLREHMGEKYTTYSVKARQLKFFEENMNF

± gives the standard deviation of the averaged measurements. The list shows a part of the results, in another mix than the full data.

For “P39880-3|Q13948 and related entries (UniProt Q13948+P39880)”, the NP40-soluble protein abundance was determined as 0.951 ± 0.058 (concentration: 1mM); 0.953 ± 0.029 (concentration: 2mM); 0.963 ± 0.03 (concentration: 4mM); 0.998 ± 0.053 (concentration: 6mM); 0.951 ± 0.026 (concentration: 8mM); 0.958 ± 0.017 (concentration: 10mM).
Regarding LIG4 (UniProt P49917), the NP40-soluble protein abundance (concentration: 1mM) came to 1.19 ± 0.079; the NP40-soluble protein abundance (concentration: 2mM) turned out to be 1.22 ± 0.1; the NP40-soluble protein abundance (concentration: 4mM) was 1.26 ± 0.098; the NP40-soluble protein abundance (concentration: 6mM) worked out at 1.21 ± 0.13; the NP40-soluble protein abundance (concentration: 8mM) was found to be 1.3 ± 0.14; the NP40-soluble protein abundance (concentration: 10mM) is 1.32 ± 0.16.
Consider HINT1 (UniProt P49773), for which the NP40-soluble protein abundance turned out to be 0.97 ± 0.081 (concentration: 1mM); 0.954 ± 0.012 (concentration: 2mM); 0.917 ± 0.017 (concentration: 4mM); 0.962 ± 0.0099 (concentration: 6mM); 0.925 ± 0.013 (concentration: 8mM); 0.875 ± 0.036 (concentration: 10mM).
On to NCBP2 (UniProt P52298), for which the NP40-soluble protein abundance by setting is: (concentration: 1mM) 0.975 ± 0.05; (concentration: 2mM) 1 ± 0.031; (concentration: 4mM) 1.01 ± 0.027; (concentration: 6mM) 1.06 ± 0.059; (concentration: 8mM) 1.08 ± 0.029; (concentration: 10mM) 1.09 ± 0.026.
For MAPKAPK2 (UniProt P49137), the NP40-soluble protein abundance runs as follows: (concentration: 1mM) 0.959 ± 0.032; (concentration: 2mM) 0.936 ± 0.024; (concentration: 4mM) 0.923 ± 0.041; (concentration: 6mM) 0.954 ± 0.012; (concentration: 8mM) 0.92 ± 0.043; (concentration: 10mM) 0.917 ± 0.029.
Consider UniProt P45880 and related entries, for which the NP40-soluble protein abundance came to 0.964 ± 0.046 (concentration: 1mM); 0.953 ± 0.038 (concentration: 2mM); 0.909 ± 0.048 (concentration: 4mM); 0.906 ± 0.062 (concentration: 6mM); 0.907 ± 0.022 (concentration: 8mM); 0.91 ± 0.02 (concentration: 10mM).
UniProt P43250-2: the NP40-soluble protein abundance reads like this: (concentration: 1mM) 1.2 ± 0.088; (concentration: 2mM) 1.18 ± 0.048; (concentration: 4mM) 1.2 ± 0.068; (concentration: 6mM) 1.19 ± 0.071; (concentration: 8mM) 1.18 ± 0.054; (concentration: 10mM) 1.14 ± 0.031.
For the target UniProt P46734, the NP40-soluble protein abundance by setting is: (concentration: 1mM) 1.1 ± 0.034; (concentration: 2mM) 1.11 ± 0.02; (concentration: 4mM) 1.04 ± 0.048; (concentration: 6mM) 1.04 ± 0.074; (concentration: 8mM) 1.08 ± 0.032; (concentration: 10mM) 1.04 ± 0.028.
In the case of SERPINH1 (UniProt P50454), the NP40-soluble protein abundance by setting is: (concentration: 1mM) 0.962 ± 0.017; (concentration: 2mM) 0.9584 ± 0.0094; (concentration: 4mM) 0.964 ± 0.015; (concentration: 6mM) 0.948 ± 0.026; (concentration: 8mM) 0.917 ± 0.018; (concentration: 10mM) 0.913 ± 0.011.
For the target UniProt P50613, the NP40-soluble protein abundance runs as follows: (concentration: 1mM) 0.998 ± 0.079; (concentration: 2mM) 1.01 ± 0.061; (concentration: 4mM) 1 ± 0.053; (concentration: 6mM) 1.01 ± 0.1; (concentration: 8mM) 1.02 ± 0.04; (concentration: 10mM) 1.04 ± 0.029.
For the target HMGCL (UniProt P35914), the NP40-soluble protein abundance (concentration: 1mM) came out at 0.916 ± 0.02; the NP40-soluble protein abundance (concentration: 2mM) worked out at 0.936 ± 0.039; the NP40-soluble protein abundance (concentration: 4mM) came to 0.929 ± 0.0096; the NP40-soluble protein abundance (concentration: 6mM) stood at 0.944 ± 0.044; the NP40-soluble protein abundance (concentration: 8mM) is 0.893 ± 0.021; the NP40-soluble protein abundance (concentration: 10mM) was found to be 0.914 ± 0.052.
In the case of MRPL19 (UniProt P49406), the NP40-soluble protein abundance by setting is: (concentration: 1mM) 1.02 ± 0.091; (concentration: 2mM) 0.896 ± 0.032; (concentration: 4mM) 0.845 ± 0.051; (concentration: 6mM) 0.851 ± 0.17; (concentration: 8mM) 0.85 ± 0.072; (concentration: 10mM) 0.855 ± 0.082.
Take KPNA1 (UniProt P52294): the NP40-soluble protein abundance was 1.1 ± 0.018 (concentration: 1mM); 1.08 ± 0.031 (concentration: 2mM); 1.09 ± 0.013 (concentration: 4mM); 1.1 ± 0.015 (concentration: 6mM); 1.12 ± 0.037 (concentration: 8mM); 1.1 ± 0.013 (concentration: 10mM).
EPS15 (UniProt P42566): the NP40-soluble protein abundance by setting is: (concentration: 1mM) 0.95 ± 0.028; (concentration: 2mM) 0.971 ± 0.014; (concentration: 4mM) 0.941 ± 0.022; (concentration: 6mM) 0.983 ± 0.034; (concentration: 8mM) 0.922 ± 0.027; (concentration: 10mM) 0.938 ± 0.027.
Take UniProt P49754 and related entries: the NP40-soluble protein abundance by setting is: (concentration: 1mM) 1.06 ± 0.029; (concentration: 2mM) 1.04 ± 0.023; (concentration: 4mM) 1.06 ± 0.04; (concentration: 6mM) 0.983 ± 0.027; (concentration: 8mM) 1.07 ± 0.035; (concentration: 10mM) 1.03 ± 0.021.
As to UniProt P40429 and related entries, the NP40-soluble protein abundance is, setting by setting: (concentration: 1mM) 0.952 ± 0.022; (concentration: 2mM) 0.887 ± 0.12; (concentration: 4mM) 0.789 ± 0.14; (concentration: 6mM) 0.692 ± 0.11; (concentration: 8mM) 0.533 ± 0.11; (concentration: 10mM) 0.823 ± 0.12.
In the case of NEK4 (UniProt P51957), the NP40-soluble protein abundance by setting is: (concentration: 1mM) 1.01 ± 0.11; (concentration: 2mM) 1.11 ± 0.061; (concentration: 4mM) 1.11 ± 0.12; (concentration: 6mM) 1.1 ± 0.12; (concentration: 8mM) 1.11 ± 0.14; (concentration: 10mM) 1.15 ± 0.074.

For the origin of these results see the supplement of paper PMC6411743.
